In the supplement of paper PMC10849652:
The other results are listed elsewhere or left out.

By UniProt entry, the sequences of proteins in these tests, tags left out. Where a name states a change or a piece, a line headed by the entry shows the natural chain unless it says otherwise.
UniProt Q9Y3C7: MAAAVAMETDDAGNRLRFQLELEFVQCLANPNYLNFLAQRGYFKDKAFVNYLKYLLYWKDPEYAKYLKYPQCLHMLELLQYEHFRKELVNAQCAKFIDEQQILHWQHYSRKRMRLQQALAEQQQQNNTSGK
UniProt Q7Z434: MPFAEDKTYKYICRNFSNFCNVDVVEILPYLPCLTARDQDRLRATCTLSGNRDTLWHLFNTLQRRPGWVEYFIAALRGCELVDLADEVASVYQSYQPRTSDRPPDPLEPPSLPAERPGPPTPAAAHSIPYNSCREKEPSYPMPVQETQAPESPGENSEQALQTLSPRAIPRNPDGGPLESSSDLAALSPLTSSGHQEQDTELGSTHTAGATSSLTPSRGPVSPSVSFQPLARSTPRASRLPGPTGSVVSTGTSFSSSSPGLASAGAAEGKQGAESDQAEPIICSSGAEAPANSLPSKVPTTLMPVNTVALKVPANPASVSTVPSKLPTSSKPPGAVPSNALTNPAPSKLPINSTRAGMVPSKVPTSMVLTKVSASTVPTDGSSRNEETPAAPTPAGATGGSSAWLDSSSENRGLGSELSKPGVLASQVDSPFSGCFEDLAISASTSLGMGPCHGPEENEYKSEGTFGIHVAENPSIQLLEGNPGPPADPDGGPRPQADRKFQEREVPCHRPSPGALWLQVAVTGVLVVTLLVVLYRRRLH
UniProt Q9NWR8: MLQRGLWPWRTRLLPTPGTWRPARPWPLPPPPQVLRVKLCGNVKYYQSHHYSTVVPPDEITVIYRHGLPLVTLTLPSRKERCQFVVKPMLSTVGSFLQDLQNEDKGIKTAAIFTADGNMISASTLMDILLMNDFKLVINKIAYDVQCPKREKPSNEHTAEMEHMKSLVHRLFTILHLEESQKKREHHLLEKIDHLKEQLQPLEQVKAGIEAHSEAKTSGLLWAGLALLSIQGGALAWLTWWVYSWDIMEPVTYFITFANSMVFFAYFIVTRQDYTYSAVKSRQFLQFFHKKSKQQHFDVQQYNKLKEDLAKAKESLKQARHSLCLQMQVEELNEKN
UniProt Q14728: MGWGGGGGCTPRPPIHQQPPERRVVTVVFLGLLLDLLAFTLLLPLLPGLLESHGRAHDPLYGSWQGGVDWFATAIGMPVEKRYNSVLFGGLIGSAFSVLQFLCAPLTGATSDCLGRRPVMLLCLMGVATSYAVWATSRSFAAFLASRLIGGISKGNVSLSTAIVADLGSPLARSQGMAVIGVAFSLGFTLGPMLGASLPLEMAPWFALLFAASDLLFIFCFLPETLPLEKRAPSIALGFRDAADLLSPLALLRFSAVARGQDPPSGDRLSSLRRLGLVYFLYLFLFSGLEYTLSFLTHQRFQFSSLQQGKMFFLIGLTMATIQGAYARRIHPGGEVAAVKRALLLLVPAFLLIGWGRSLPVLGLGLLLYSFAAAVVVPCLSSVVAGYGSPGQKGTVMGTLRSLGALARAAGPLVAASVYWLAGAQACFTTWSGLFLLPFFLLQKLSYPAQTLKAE
UniProt Q9ULC4: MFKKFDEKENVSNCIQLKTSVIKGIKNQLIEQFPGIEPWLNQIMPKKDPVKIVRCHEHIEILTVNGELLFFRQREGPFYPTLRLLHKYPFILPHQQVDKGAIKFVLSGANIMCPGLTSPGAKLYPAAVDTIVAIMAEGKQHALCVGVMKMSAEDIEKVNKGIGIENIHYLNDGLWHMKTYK
UniProt O95140: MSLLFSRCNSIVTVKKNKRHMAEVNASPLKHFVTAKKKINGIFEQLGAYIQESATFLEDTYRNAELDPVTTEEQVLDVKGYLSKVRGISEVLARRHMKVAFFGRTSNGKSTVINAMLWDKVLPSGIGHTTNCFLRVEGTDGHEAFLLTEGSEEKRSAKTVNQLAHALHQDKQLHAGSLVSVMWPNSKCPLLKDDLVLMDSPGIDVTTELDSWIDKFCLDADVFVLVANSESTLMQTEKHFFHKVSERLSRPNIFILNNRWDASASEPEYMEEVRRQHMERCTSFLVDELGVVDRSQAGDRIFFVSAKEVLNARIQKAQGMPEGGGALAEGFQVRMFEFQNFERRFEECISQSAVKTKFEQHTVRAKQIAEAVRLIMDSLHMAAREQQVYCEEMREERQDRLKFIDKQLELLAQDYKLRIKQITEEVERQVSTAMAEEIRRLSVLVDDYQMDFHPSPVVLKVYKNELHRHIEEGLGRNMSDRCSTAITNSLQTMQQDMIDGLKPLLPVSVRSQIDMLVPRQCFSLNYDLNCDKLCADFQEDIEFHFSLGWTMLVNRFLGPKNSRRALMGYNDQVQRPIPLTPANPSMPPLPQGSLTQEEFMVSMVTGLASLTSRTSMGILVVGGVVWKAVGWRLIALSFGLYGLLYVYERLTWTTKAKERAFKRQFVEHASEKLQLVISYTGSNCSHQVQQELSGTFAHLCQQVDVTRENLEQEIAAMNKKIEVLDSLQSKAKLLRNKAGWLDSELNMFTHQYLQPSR
UniProt Q9NS73: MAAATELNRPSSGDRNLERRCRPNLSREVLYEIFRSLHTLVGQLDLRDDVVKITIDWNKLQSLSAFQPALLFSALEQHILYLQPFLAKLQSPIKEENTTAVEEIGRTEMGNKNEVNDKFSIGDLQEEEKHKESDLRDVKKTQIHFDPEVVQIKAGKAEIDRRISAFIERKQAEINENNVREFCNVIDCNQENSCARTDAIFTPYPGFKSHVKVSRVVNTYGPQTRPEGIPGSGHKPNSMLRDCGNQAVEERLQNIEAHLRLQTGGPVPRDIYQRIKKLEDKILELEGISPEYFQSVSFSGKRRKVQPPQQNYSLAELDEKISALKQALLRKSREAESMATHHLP
UniProt O95402: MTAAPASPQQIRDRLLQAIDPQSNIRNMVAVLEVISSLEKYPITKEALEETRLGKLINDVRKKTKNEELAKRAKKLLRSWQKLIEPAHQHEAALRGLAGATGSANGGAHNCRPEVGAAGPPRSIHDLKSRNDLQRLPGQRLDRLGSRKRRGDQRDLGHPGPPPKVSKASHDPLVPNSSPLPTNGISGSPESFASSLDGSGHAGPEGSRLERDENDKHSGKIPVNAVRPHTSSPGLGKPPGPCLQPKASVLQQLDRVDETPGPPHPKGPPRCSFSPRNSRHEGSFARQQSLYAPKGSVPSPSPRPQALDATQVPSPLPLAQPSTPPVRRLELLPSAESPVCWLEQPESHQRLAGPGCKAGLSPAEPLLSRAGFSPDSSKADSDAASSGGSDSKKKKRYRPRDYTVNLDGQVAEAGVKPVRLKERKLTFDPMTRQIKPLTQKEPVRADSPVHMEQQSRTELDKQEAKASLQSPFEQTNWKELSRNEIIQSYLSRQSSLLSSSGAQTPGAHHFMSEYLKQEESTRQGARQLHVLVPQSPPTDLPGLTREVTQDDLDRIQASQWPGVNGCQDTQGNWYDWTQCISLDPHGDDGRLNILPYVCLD
UniProt Q8NHS3: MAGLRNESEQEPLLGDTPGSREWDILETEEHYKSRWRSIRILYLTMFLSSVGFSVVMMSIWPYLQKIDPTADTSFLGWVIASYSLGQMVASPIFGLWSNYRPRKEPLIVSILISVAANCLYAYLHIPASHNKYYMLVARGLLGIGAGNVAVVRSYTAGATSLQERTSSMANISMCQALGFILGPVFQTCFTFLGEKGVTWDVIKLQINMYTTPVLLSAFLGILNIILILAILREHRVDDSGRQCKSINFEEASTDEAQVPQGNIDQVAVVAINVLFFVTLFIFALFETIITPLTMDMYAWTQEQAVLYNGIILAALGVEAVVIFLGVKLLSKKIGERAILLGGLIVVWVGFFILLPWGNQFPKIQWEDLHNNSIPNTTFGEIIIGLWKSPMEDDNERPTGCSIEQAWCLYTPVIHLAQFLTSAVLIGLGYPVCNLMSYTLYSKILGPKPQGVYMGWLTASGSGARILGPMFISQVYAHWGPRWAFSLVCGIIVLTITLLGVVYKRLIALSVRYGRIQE
UniProt Q9UBP6: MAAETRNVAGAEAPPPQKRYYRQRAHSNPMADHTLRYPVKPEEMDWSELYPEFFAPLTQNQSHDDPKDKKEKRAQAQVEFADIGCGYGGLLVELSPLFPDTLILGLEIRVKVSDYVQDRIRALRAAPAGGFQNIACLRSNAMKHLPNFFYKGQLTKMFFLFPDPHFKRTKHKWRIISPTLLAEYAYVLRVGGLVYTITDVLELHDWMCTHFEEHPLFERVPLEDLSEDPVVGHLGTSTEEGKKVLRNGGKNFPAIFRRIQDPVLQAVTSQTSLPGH
UniProt Q5TF39: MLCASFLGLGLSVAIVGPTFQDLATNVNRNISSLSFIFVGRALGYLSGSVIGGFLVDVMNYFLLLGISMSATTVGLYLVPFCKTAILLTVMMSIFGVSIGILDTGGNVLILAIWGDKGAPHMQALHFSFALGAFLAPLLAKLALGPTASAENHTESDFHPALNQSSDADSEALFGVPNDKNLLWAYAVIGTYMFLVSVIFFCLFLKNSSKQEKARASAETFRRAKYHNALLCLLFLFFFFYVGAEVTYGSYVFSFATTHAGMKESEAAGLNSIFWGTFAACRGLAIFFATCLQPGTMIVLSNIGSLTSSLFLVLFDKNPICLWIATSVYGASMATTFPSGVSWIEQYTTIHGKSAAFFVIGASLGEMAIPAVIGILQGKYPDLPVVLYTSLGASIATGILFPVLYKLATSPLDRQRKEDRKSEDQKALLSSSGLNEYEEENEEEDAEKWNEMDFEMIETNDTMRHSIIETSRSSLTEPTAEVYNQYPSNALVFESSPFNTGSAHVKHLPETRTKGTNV
UniProt Q9BUE0: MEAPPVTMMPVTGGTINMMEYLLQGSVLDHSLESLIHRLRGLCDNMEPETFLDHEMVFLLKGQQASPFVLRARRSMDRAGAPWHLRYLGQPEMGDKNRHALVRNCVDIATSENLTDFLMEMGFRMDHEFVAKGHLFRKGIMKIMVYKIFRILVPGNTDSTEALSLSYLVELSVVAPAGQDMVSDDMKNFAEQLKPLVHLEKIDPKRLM
UniProt Q9H204: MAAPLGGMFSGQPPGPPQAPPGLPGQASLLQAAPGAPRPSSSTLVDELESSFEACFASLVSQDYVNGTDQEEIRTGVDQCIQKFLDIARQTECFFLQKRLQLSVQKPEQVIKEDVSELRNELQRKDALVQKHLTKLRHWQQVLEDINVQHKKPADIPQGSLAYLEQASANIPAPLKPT
UniProt Q15528: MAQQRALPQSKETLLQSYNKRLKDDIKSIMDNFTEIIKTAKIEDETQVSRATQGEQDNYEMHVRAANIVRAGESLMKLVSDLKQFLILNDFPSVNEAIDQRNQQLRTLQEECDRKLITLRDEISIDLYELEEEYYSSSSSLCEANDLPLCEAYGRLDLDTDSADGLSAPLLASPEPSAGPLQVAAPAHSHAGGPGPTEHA
UniProt Q6ZNC8: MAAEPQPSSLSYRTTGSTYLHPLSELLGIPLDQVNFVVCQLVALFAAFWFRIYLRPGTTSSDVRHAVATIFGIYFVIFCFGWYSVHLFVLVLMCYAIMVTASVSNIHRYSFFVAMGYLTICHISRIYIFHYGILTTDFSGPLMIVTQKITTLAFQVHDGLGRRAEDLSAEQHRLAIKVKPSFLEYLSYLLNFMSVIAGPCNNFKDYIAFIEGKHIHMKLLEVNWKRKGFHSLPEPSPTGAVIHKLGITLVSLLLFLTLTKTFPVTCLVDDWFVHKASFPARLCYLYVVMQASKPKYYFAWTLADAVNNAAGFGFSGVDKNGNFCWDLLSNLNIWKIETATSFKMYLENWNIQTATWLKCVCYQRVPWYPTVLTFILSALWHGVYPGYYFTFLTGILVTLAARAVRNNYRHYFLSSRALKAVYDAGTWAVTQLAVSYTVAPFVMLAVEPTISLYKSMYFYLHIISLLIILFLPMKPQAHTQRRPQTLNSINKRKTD
UniProt Q13503: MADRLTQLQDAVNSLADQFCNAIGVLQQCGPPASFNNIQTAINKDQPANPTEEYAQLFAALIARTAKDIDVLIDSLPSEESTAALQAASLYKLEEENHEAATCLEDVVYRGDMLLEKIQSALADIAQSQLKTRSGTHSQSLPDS
UniProt Q86V88: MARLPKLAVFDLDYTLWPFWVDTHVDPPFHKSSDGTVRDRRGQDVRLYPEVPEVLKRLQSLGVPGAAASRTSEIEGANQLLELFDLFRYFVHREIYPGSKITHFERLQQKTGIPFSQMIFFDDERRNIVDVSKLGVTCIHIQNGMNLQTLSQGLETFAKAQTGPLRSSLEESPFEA

Columns and labels:
Experiment in all cases: log2 fold change, soluble protein after heating vs DMSO (PISA); higher = thermal stabilisation; K562 lysate, 10 uM; active = over 0.2 and 3.5 SD of the protein, either way, in both replicates (recomputed)
nilotinib = compound: Cc1cn(-c2cc(NC(=O)c3ccc(C)c(Nc4nccc(-c5cccnc5)n4)c3)cc(C(F)(F)F)c2)cn1 [nilotinib]
Outline: (§1)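 Dounce homogenisation of K562 pellets in PBS pH 7.4 with 1 mM MgCl2 produced a crude extract, used at 1 mg/mL protein. Exposure to 10 μM compound lasted 30 min, and aliquots were then heated for 3 min across 48°C-58°C, pooled and brought to 0.5% NP-40 at 4°C. The supernatant after 21,000xg for 90 min was quantified by TMTpro 16plex LC-MS/MS with channel sums equalised. Duplicate values are given as log-two fold change in thermal stability relative to solvent controls.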

[1] = compound: Cc1nc(Nc2n[nH]c3c2CN(C(=O)N[C@H](CN(C)C)c2ccccc2)C3(C)C)c2sccc2n1
Outline: as §1

dasatinib = compound: Cc1nc(Nc2ncc(C(=O)Nc3c(C)cccc3Cl)s2)cc(N2CCN(CCO)CC2)n1 [dasatinib]
Outline: as §1

[2] = compound: Cc1ncc(-c2ccnc(Nc3ccc(S(C)(=O)=O)cc3)n2)n1C(C)C
Outline: as §1

[3] = compound: Cn1cc(-c2ccc3c(c2)CCN3C(=O)Cc2cccc(C(F)(F)F)c2)c2c(N)ncnc21
Outline: as §1

quisinostat = compound: Cn1cc(CNCC2CCN(c3ncc(C(=O)NO)cn3)CC2)c2ccccc21 [quisinostat]
Outline: as §1

tipifarnib = compound: Cn1cncc1[C@@](N)(c1ccc(Cl)cc1)c1ccc2c(c1)c(-c1cccc(Cl)c1)cc(=O)n2C [tipifarnib]
Outline: as §1

[4] = compound: NC(=O)Nc1cc(-c2cccc(F)c2)sc1C(=O)N[C@H]1CCCNC1
Outline: as §1

[5] = compound: NC(=O)c1cnc(N[C@@H]2CCCC[C@@H]2N)nc1Nc1cccc(-n2nccn2)c1
Outline: as §1

[6] = compound: NC1(c2ccc(-c3nc4ccn5c(=O)[nH]nc5c4cc3-c3ccccc3)cc2)CCC1
Outline: as §1

vorinostat = compound: O=C(CCCCCCC(=O)Nc1ccccc1)NO [vorinostat]
Outline: as §1

silmitasertib = compound: O=C(O)c1ccc2c(c1)nc(Nc1cccc(Cl)c1)c1ccncc12 [silmitasertib]
Outline: as §1

[7] = compound: O=C1NC(=O)C(c2cnc3ccccn23)=C1c1cn2c3c(cc(F)cc13)CN(C(=O)N1CCCCC1)CC2
Outline: as §1

[8] = compound: NCC(=O)Nc1ccc(-n2nc(C(F)(F)F)cc2-c2ccc3c(ccc4ccccc43)c2)cc1
Outline: as §1

entospletinib = compound: c1cn2cc(-c3ccc4cn[nH]c4c3)nc(Nc3ccc(N4CCOCC4)cc3)c2n1 [entospletinib]
Outline: as §1

Measured: log2 fold change

MED31 (UniProt Q9Y3C7)
inactive: nilotinib -0.001 | [1] 0.018 | dasatinib -0.034 | [2] 0.059 | [3] 0.039 | quisinostat -0.035 | tipifarnib -0.023 | [4] -0.027 | [5] -0.021 | [6] -0.002 | vorinostat -0.065 | silmitasertib -0.031 | [7] -0.012

MAVS (UniProt Q7Z434)
inactive: nilotinib 0.032 | [1] -0.041 | dasatinib 0.002 | [2] -0.037 | [3] -0.022 | quisinostat -0.03 | tipifarnib -0.009 | [4] -0.003 | [5] -0.013 | [6] 0.018 | [8] 0.009 | vorinostat 0.02 | silmitasertib -0.007 | [7] 0.057 | entospletinib -0.029

MCUB (UniProt Q9NWR8)
inactive: nilotinib -0.142 | [1] 0.119 | dasatinib 0.075 | [2] -0.12 | [3] 0.122 | quisinostat -0.262 | tipifarnib -0.112 | [4] 0.143 | [5] -0.008 | [6] -0.014 | vorinostat 0.129 | silmitasertib 0.057 | [7] 0.027

MFSD10 (UniProt Q14728)
inactive: nilotinib 0.017 | [1] -0.018 | dasatinib 0.028 | [2] 0.024 | [3] 0.033 | quisinostat -0.041 | tipifarnib -0.097 | [4] -0.015 | [5] -0.013 | [6] -0.048 | [8] 0.013 | vorinostat 0.02 | silmitasertib 0.049 | [7] 0.017 | entospletinib -0.095

MCTS1 isoform 3 (UniProt Q9ULC4)
inactive: nilotinib -0.001 | [1] 0.019 | dasatinib 0.016 | [2] 0.009 | [3] -0.009 | quisinostat 0.077 | tipifarnib 0.037 | [4] -0.004 | [5] -0.046 | [6] -0.014 | [8] 0.004 | vorinostat -0.002 | silmitasertib -0.004 | [7] -0.001 | entospletinib 0.038

MFN2 (UniProt O95140)
inactive: nilotinib 0.046 | [1] -0.056 | dasatinib -0.055 | [2] 0.015 | [3] 0.039 | quisinostat -0.017 | tipifarnib -0.039 | [4] 0.03 | [5] 0.038 | [6] -0.03 | [8] -0.01 | vorinostat -0.221 | silmitasertib 0.013 | [7] 0 | entospletinib 0.004

MBIP (UniProt Q9NS73)
inactive: nilotinib 0.045 | [1] -0.021 | dasatinib -0.029 | [2] -0.005 | [3] -0.007 | quisinostat -0.103 | tipifarnib 0.004 | [4] 0.097 | [5] 0.038 | [6] 0.034 | [8] 0.113 | vorinostat -0.142 | silmitasertib -0.002 | [7] -0.25 | entospletinib 0.088

MED26 (UniProt O95402)
inactive: nilotinib 0.174 | [1] -0.156 | [2] -0.075 | quisinostat -0.03 | tipifarnib 0.087 | [4] 0.02 | [5] -0.053 | [6] 0.238 | [8] -0.136 | vorinostat 0.214 | silmitasertib -0.101 | [7] 0.064 | entospletinib -0.102

MFSD8 (UniProt Q8NHS3)
inactive: nilotinib -0.159 | [1] -0.2 | [2] 0.056 | quisinostat -0.03 | tipifarnib 0.062 | [4] 0.065 | [5] 0.102 | [6] -0.073 | [8] 0.02 | vorinostat 0.067 | silmitasertib -0.106 | [7] 0.018

METTL1 (UniProt Q9UBP6)
inactive: nilotinib -0.053 | [1] -0.037 | dasatinib -0.035 | [2] -0.047 | [3] -0.007 | quisinostat 0.036 | tipifarnib 0.003 | [4] -0.014 | [5] -0.023 | [6] -0.009 | [8] 0.024 | vorinostat 0.003 | silmitasertib 0.008 | [7] -0.028 | entospletinib -0.065

MFSD4B (UniProt Q5TF39)
inactive: nilotinib 0.093 | [1] -0.089 | dasatinib -0.077 | [2] -0.032 | [3] 0.088 | quisinostat 0.282 | tipifarnib -0.367 | [4] 0.02 | [5] 0 | [6] 0.038 | vorinostat 0.094 | silmitasertib -0.04 | [7] -0.26 | entospletinib 0.053

MED18 (UniProt Q9BUE0)
inactive: nilotinib 0 | [1] 0.022 | dasatinib 0.004 | [2] 0.013 | [3] -0.04 | quisinostat 0.038 | tipifarnib 0.016 | [4] 0.017 | [5] -0.044 | [6] -0.022 | [8] -0.073 | vorinostat 0.073 | silmitasertib -0.044 | [7] -0.05 | entospletinib -0.008

Two entries drawn at random from the list so far:
METTL1 (UniProt Q9UBP6)
inactive: nilotinib -0.053 | [1] -0.037 | dasatinib -0.035 | [2] -0.047 | [3] -0.007 | quisinostat 0.036 | tipifarnib 0.003 | [4] -0.014 | [5] -0.023 | [6] -0.009 | [8] 0.024 | vorinostat 0.003 | silmitasertib 0.008 | [7] -0.028 | entospletinib -0.065

MED18 (UniProt Q9BUE0)
inactive: nilotinib 0 | [1] 0.022 | dasatinib 0.004 | [2] 0.013 | [3] -0.04 | quisinostat 0.038 | tipifarnib 0.016 | [4] 0.017 | [5] -0.044 | [6] -0.022 | [8] -0.073 | vorinostat 0.073 | silmitasertib -0.044 | [7] -0.05 | entospletinib -0.008

Next part:

MED28 (UniProt Q9H204)
inactive: nilotinib 0.053 | [1] 0.053 | dasatinib -0.004 | [2] 0.053 | [3] -0.006 | quisinostat -0.007 | tipifarnib 0.015 | [4] -0.013 | [5] -0.005 | [6] -0.014 | vorinostat -0.219 | silmitasertib 0.003 | [7] 0.09

MED22 isoform 2 (UniProt Q15528)
inactive: nilotinib 0.002 | [1] -0.004 | dasatinib 0.027 | [2] 0.025 | [3] -0.002 | quisinostat -0.016 | tipifarnib 0.049 | [4] -0.061 | [5] 0 | [6] 0.011 | [8] -0.017 | vorinostat -0.049 | silmitasertib -0.006 | [7] 0.009 | entospletinib -0.09

MBOAT1 (UniProt Q6ZNC8)
inactive: nilotinib -0.024 | [1] 0.059 | [2] 0.19 | quisinostat -0.035 | tipifarnib -0.051 | [4] 0.088 | [5] 0.195 | [6] 0.051 | [8] 0.126 | vorinostat 0.251 | silmitasertib -0.177 | [7] 0.041 | entospletinib -0.081

MED21 (UniProt Q13503)
inactive: nilotinib 0.191 | [1] 0.102 | dasatinib -0.03 | [2] 0.393 | [3] 0.007 | quisinostat 0.03 | tipifarnib 0.046 | [4] -0.044 | [5] -0.065 | [6] -0.005 | vorinostat 0.14 | silmitasertib -0.112 | [7] 0.044 | entospletinib -0.003

MDP1 (UniProt Q86V88)
inactive: nilotinib -0.012 | [1] 0.061 | dasatinib 0.029 | [2] 0.032 | [3] 0.021 | quisinostat -0.058 | tipifarnib 0.046 | [4] 0.002 | [5] -0.013 | [6] -0.046 | [8] -0.01 | vorinostat 0.13 | silmitasertib 0.017 | [7] 0.004 | entospletinib -0.064
